Assay: general procedure: peptide synthesis; HBTU/DIEA (conjugation of peptide-acid to morpholino oligomer)
Details: conjugation step, SCX HPLC

Substance: 5′-(EG3)-C+TTCGA+TAG+TG-3′-(Ac(RAhxR)4AhxB-)
- final HPLC purity: 84.7%

Reference: US10144762B2 (priority 2005, dated 2018)
